Holding throughout (assay): affinity purification with mass spectrometry
Assay [1] concerns the target LCMV Z WT with a C-terminal streptavidin binding peptide (SBP) tag (LCMV) (UniProt P18541).
Assay [2] deals with LASV Z WT with a C-terminal streptavidin binding peptide (SBP) tag (Lassa virus) (UniProt O73557).
For assay [3] the target is unchanged. This is another data set of the same source.
The target of assay [4] is LCMV Z WT with a C-terminal streptavidin binding peptide (SBP) tag (LCMV) (UniProt P18541). This is another data set of the same source.

The chains behind the UniProt entries cited, without tags or fusion partners. Residues count along the entry.
UniProt P18541: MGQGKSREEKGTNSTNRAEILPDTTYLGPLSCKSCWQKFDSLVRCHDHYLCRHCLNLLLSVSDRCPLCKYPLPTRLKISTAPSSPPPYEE
UniProt O73557: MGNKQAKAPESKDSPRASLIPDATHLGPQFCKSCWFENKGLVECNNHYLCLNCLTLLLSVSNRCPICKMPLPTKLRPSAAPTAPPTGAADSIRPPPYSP
UniProt P46934: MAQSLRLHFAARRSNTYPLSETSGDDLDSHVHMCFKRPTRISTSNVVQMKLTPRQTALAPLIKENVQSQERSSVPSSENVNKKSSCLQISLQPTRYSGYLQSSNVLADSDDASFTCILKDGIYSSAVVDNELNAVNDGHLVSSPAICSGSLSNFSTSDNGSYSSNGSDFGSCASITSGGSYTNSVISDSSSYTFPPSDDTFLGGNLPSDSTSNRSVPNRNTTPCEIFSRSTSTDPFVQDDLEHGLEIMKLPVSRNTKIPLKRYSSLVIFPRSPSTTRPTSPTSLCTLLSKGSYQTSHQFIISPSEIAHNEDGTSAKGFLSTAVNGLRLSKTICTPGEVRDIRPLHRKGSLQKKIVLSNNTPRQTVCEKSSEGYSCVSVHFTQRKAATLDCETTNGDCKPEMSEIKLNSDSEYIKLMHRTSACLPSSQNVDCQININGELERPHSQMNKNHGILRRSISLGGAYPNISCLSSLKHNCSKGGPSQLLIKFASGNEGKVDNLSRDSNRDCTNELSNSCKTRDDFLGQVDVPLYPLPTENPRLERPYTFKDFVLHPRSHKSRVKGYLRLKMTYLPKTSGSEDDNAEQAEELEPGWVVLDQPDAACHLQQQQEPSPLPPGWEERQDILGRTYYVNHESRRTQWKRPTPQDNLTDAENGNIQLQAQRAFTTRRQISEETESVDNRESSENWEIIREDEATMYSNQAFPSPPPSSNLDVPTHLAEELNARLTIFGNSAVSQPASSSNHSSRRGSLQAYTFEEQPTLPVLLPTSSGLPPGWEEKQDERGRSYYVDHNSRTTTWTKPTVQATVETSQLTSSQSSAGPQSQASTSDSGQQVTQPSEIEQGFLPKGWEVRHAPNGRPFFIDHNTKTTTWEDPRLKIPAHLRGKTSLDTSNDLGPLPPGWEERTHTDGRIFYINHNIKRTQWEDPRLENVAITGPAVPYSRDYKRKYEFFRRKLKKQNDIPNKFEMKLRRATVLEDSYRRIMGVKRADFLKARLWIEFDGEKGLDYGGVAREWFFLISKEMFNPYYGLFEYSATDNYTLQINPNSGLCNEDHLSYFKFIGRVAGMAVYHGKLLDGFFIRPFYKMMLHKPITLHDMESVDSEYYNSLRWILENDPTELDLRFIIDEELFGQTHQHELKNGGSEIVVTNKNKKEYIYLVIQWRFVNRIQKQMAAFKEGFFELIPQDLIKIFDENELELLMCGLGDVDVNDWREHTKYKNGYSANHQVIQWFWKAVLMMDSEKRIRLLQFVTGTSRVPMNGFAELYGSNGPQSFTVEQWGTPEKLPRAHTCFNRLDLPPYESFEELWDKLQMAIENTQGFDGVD
UniProt Q9UN37: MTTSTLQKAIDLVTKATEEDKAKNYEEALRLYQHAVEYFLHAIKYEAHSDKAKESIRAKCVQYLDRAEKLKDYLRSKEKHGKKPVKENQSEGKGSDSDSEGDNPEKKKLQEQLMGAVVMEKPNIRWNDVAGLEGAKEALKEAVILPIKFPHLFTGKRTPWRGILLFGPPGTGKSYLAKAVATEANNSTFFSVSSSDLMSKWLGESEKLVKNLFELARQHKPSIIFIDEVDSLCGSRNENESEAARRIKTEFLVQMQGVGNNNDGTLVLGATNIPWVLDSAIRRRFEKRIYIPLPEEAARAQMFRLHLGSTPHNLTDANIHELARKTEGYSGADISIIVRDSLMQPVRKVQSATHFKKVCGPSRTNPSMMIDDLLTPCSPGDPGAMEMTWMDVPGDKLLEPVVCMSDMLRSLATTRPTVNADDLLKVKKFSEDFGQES
UniProt O00560: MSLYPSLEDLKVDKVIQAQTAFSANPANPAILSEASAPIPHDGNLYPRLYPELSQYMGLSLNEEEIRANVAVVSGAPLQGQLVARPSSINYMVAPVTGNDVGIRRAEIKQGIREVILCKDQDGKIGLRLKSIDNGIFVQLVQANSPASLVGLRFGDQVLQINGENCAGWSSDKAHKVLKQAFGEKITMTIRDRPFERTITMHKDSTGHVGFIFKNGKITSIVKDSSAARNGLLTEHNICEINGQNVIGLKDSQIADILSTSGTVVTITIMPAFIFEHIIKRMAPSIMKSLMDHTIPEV
UniProt O60784: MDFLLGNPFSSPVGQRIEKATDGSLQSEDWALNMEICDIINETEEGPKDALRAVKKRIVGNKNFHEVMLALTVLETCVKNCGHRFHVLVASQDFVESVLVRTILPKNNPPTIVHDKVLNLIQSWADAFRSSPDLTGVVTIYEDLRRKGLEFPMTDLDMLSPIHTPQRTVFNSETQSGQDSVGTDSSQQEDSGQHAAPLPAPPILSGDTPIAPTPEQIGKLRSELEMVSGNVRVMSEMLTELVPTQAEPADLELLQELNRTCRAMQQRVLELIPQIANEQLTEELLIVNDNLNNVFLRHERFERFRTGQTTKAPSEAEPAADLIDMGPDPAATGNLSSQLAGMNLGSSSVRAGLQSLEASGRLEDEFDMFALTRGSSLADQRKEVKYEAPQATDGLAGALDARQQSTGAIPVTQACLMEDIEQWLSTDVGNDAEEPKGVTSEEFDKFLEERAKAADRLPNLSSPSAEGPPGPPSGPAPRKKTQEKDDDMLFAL
UniProt O14964: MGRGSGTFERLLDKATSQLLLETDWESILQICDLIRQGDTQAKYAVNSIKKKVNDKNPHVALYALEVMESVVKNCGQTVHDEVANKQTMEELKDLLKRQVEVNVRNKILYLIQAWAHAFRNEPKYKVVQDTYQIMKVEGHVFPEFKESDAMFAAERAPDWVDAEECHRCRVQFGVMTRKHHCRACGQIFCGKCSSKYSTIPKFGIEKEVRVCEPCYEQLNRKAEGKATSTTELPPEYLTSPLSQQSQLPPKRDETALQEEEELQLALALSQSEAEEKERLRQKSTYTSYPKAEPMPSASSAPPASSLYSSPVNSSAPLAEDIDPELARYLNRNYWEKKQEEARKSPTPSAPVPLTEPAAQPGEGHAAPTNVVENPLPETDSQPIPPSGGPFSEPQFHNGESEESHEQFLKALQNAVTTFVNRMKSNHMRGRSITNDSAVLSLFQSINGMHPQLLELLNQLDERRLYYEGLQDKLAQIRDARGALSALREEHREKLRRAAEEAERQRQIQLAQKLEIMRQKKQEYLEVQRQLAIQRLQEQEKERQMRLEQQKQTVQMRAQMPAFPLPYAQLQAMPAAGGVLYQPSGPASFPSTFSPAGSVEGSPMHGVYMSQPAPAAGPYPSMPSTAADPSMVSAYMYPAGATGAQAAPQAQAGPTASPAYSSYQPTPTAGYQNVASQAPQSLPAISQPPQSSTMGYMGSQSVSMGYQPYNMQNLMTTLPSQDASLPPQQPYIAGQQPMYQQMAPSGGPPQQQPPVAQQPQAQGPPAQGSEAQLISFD
UniProt O75351: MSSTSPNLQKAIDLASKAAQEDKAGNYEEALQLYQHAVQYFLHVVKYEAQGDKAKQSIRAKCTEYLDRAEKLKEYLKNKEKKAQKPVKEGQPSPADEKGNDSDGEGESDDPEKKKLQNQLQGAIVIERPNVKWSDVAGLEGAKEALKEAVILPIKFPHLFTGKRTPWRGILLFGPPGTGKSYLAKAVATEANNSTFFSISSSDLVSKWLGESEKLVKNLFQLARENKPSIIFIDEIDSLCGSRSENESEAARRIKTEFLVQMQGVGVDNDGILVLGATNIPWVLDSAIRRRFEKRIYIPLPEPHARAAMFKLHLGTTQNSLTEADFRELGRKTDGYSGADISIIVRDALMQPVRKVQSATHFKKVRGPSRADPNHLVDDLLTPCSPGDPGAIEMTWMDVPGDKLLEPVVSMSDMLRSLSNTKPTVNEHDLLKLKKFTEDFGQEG
UniProt Q8WUM4: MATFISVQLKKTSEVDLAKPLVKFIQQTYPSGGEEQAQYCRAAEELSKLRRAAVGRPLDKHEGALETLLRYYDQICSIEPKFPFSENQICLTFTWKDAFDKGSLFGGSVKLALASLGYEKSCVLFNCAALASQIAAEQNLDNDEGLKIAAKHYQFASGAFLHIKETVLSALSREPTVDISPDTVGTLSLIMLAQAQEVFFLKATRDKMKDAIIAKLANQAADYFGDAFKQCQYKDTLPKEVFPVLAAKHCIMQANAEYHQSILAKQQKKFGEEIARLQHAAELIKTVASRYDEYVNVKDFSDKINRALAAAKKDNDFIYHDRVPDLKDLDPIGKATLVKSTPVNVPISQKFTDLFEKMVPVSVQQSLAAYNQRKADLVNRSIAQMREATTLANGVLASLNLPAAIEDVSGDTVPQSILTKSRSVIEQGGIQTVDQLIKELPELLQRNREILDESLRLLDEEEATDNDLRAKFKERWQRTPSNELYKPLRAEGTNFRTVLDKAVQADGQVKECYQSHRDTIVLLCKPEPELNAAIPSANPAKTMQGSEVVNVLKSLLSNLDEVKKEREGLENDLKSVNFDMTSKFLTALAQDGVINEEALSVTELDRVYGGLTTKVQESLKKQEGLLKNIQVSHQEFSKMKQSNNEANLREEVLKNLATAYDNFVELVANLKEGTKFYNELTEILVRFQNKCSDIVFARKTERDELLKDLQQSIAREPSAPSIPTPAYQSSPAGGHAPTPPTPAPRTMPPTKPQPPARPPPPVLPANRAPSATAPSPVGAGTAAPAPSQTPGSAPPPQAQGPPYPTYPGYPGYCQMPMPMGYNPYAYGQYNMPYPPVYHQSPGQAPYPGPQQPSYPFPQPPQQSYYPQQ
UniProt P07996, residues 19-1170: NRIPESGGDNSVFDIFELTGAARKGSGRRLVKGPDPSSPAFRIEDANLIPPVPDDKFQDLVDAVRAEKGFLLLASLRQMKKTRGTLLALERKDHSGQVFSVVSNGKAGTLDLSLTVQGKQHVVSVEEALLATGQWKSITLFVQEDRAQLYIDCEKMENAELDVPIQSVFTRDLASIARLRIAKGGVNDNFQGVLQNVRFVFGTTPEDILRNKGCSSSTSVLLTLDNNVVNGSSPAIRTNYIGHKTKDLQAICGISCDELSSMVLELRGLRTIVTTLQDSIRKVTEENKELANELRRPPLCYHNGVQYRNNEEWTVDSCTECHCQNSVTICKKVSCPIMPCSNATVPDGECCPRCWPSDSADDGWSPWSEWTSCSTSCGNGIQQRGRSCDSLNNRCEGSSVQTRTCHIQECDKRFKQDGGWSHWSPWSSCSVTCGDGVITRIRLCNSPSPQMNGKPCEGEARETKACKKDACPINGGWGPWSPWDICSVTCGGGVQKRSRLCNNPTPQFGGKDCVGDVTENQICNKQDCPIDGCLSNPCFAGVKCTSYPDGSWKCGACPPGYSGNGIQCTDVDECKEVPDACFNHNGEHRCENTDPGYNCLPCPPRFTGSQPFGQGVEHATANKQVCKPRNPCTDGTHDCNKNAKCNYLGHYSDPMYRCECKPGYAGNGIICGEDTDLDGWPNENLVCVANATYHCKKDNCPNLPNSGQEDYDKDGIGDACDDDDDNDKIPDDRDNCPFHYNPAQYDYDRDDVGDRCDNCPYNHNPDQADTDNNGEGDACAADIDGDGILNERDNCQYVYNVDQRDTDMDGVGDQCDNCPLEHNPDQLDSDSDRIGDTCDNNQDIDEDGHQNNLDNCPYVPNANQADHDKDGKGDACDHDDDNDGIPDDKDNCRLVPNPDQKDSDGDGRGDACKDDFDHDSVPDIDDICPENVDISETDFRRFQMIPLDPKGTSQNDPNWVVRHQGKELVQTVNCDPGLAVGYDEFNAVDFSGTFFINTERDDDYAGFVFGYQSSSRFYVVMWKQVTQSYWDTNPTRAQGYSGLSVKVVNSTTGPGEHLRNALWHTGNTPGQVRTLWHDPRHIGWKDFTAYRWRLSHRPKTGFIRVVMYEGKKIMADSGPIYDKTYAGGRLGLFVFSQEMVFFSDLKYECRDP
UniProt Q99816: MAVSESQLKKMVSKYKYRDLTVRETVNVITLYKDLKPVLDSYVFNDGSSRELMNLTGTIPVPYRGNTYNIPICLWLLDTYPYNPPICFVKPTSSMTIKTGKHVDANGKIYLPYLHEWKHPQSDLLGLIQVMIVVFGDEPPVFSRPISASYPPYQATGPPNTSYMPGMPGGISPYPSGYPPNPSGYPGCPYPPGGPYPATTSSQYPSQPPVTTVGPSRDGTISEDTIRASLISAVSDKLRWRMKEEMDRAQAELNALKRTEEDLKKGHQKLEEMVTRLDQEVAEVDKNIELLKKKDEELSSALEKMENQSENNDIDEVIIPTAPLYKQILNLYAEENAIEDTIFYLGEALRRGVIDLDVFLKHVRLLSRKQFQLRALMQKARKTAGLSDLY

Read-outs that look alike come from different tables or passages of the source. No constants are given. Whether binding was seen depends on the method and setting. In cells and extracts the contact can be indirect. Here binding means that the protein was enriched with, or labelled near, the bait; the list need not be complete. For part of these data: No binding means not detected with the bait.

With “Nedd4 (from UniProt P46934 1-1319) (enzyme)”, the binding result in assay [1] was “binds”. With “VPS4A (from UniProt Q9UN37 1-437) (enzyme)”, the binding entry in assay [1] is on record as “binds”. As to “Syntenin (SDCBP) (from UniProt O00560 1-298)”, the binding entry in assay [2] and in assay [1] was “binds” each time. Take TOM1 (from UniProt O60784 1-492): the binding entry in assay [1] was “binds”. As to “Hrs (official gene symbol HGS) (from UniProt O14964 1-777)”, the binding entry in assay [2] and in assay [1] was “binds” in each case. Take “VPS4B (from UniProt O75351 1-444) (enzyme)”: the binding result in assay [1] was “binds”. Still for that read-out and setting: with “ALIX (official gene symbol PDCD6IP) (from UniProt Q8WUM4 1-868)” the entry was “binds”. Turning to “thrombospondin 1 (THBS1) (from UniProt P07996 19-1170)”, the binding entry in assay [2] and in assay [1] was “binds” each time. For Tsg101 (from UniProt Q99816 1-390), the binding entry in assay [2] is reported as “binds”; in assay [1], “no binding”.

B1: annexin A6 (ANXA6) (protein, UniProt P08133 1-673)
chain: MAKPAQGAKYRGSIHDFPGFDPNQDAEALYTAMKGFGSDKEAILDIITSRSNRQRQEVCQSYKSLYGKDLIADLKYELTGKFERLIVGLMRPPAYCDAKEIKDAISGIGTDEKCLIEILASRTNEQMHQLVAAYKDAYERDLEADIIGDTSGHFQKMLVVLLQGTREEDDVVSEDLVQQDVQDLYEAGELKWGTDEAQFIYILGNRSKQHLRLVFDEYLKTTGKPIEASIRGELSGDFEKLMLAVVKCIRSTPEYFAERLFKAMKGLGTRDNTLIRIMVSRSELDMLDIREIFRTKYEKSLYSMIKNDTSGEYKKTLLKLSGGDDDAAGQFFPEAAQVAYQMWELSAVARVELKGTVRPANDFNPDADAKALRKAMKGLGTDEDTIIDIITHRSNVQRQQIRQTFKSHFGRDLMTDLKSEISGDLARLILGLMMPPAHYDAKQLKKAMEGAGTDEKALIEILATRTNAEIRAINEAYKEDYHKSLEDALSSDTSGHFRRILISLATGHREEGGENLDQAREDAQVAAEILEIADTPSGDKTSLETRFMTILCTRSYPHLRRVFQEFIKMTNYDVEHTIKKEMSGDVRDAFVAIVQSVKNKPLFFADKLYKSMKGAGTDEKTLTRIMVSRSEIDLLNIRREFIEKYDKSLHQAIEGDTSGDFLKALLALCGGED
For the molecule B1, the binding result in assay [3] and in assay [4] was “binds” in each case.
